# Laboratory results: the supplement of paper PMC8728848
# This is one part of the list.
# B1: CD72 ectodomain (Homo sapiens), P21854 (protein)
# chain: RYLQVSQQLQQTNRVLEVTNSSLRQQLRLKITQLGQSAEDLQGSRRELAQSQEALQVEQRAHQAAEGQLQACQADRQKTKETLQSEEQQRRALEQKLSNMENRLKPFFTCGSADTCCPSGWIMHQKSCFYISLTSKNWQESQKQCETLSSKLATFSEIYPQSHSYYFLNSLLPNGGSGNSYWTGLSSNKDWKLTDDTQRTRTYAQSSKCNKVHKTWSWWTLESESCRSSLPYICEMTAFRFPD
# Assays:
# Assay in all cases: glycan array binding signal (z-score within array); higher = stronger binding
# Details in all cases: glycan notation: IUPAC condensed, linker removed
# [1] = target: Gal(b1-4)GlcNAc(b1-3)Gal(b1-4)Glc
# Outline: (§1)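 Glycan array data were curated from 3228 arrays in the Consortium for Functional Glycomics database and kept only where the protein sequence was available. Glycan names were converted to IUPAC-condensed notation, and columns mapping to the same glycan were averaged. The binding signal is a within-array Z-score, averaged across arrays of the same protein sequence at different concentrations or buffers and across linkers. Negative Z-scores can be read as non-binding.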
# [2] = target: Gal(b1-4)GlcNAc(b1-3)Gal(b1-4)GlcNAc
# Outline: as §1
# [3] = target: Gal(b1-4)GlcNAc(b1-3)Gal(b1-4)GlcNAc(b1-3)Gal(b1-4)GlcNAc
# Outline: as §1
# [4] = target: Gal(b1-4)GlcNAc(b1-3)Gal(b1-4)[Fuc(a1-3)GlcNAc(b1-6)]Gal(b1-4)Glc
# Outline: as §1
# [5] = target: Gal(b1-4)GlcNAc(b1-3)Gal(b1-4)[Fuc(a1-3)]GlcNAc(b1-3)Gal(b1-4)[Fuc(a1-3)]GlcNAc
# Outline: as §1
# [6] = target: Gal(b1-4)GlcNAc(b1-3)GalNAc
# Outline: as §1
# [7] = target: Gal(b1-4)GlcNAc(b1-3)[Gal(b1-4)GlcNAc(b1-6)]Gal(b1-4)GlcNAc
# Outline: as §1
# [8] = target: Gal(b1-4)GlcNAc(b1-3)[Gal(b1-4)GlcNAc(b1-6)]GalNAc
# Outline: as §1
# [9] = target: Gal(b1-4)GlcNAc(b1-3)[GlcNAc(b1-6)]Gal(b1-4)GlcNAc
# Outline: as §1
# [10] = target: Gal(b1-4)GlcNAc(b1-6)Gal(b1-4)GlcNAc
# Outline: as §1
# [11] = target: Gal(b1-4)GlcNAc(b1-6)GalNAc
# Outline: as §1
# [12] = target: Gal(b1-4)GlcNAc(b1-6)[Gal(b1-3)]GalNAc
# Outline: as §1
# [13] = target: Gal(b1-6)Gal
# Outline: as §1
# [14] = target: Gal3S(b1-3)GalNAc
# Outline: as §1
# [15] = target: Gal3S(b1-3)GlcNAc
# Outline: as §1
# [16] = target: Gal3S(b1-3)[Fuc(a1-4)]GlcNAc
# Outline: as §1
# [17] = target: Gal3S(b1-4)Glc
# Outline: as §1
# [18] = target: Gal3S(b1-4)Glc6S
# Outline: as §1
# [19] = target: Gal3S(b1-4)GlcNAc
# Outline: as §1
# [20] = target: Gal3S(b1-4)GlcNAc6S
# Outline: as §1
# [21] = target: Gal3S(b1-4)[Fuc(a1-3)]Glc
# Outline: as §1
# [22] = target: Gal3S(b1-4)[Fuc(a1-3)]Glc6S
# Outline: as §1
# [23] = target: Gal3S4S(b1-4)GlcNAc
# Outline: as §1
# [24] = target: Gal3S6S(b1-4)GlcNAc
# Outline: as §1
# [25] = target: Gal3S6S(b1-4)GlcNAc6S
# Outline: as §1
# [26] = target: Gal4S(b1-4)GlcNAc
# Outline: as §1
# [27] = target: Gal4S6S(b1-4)GlcNAc
# Outline: as §1
# [28] = target: Gal6S(b1-3)GlcNAc
# Outline: as §1
# [29] = target: Gal6S(b1-3)GlcNAc6S
# Outline: as §1
# [30] = target: Gal6S(b1-4)Glc
# Outline: as §1
# [31] = target: Gal6S(b1-4)Glc6S
# Outline: as §1
# [32] = target: Gal6S(b1-4)GlcNAc
# Outline: as §1
# [33] = target: Gal6S(b1-4)GlcNAc6S
# Outline: as §1
# [34] = target: GalNAc(a1-3)Gal
# Outline: as §1
# [35] = target: GalNAc(a1-3)GalNAc
# Outline: as §1
# [36] = target: GalNAc(a1-3)GalNAc(b1-3)Gal(a1-4)Gal(b1-4)Glc
# Outline: as §1
# [37] = target: GalNAc(a1-3)GalNAc(b1-3)Gal(a1-4)Gal(b1-4)GlcNAc
# Outline: as §1
binder,measurement,setting,value
B1,glycan array binding signal (z-score),[1],-0.735
same,glycan array binding signal (z-score),[2],-0.395
same,glycan array binding signal (z-score),[3],-0.684
same,glycan array binding signal (z-score),[4],-0.359
same,glycan array binding signal (z-score),[5],-1.24
same,glycan array binding signal (z-score),[6],0.076
same,glycan array binding signal (z-score),[7],-0.055
same,glycan array binding signal (z-score),[8],-0.646
same,glycan array binding signal (z-score),[9],1.84
same,glycan array binding signal (z-score),[10],-2.09
same,glycan array binding signal (z-score),[11],0.142
same,glycan array binding signal (z-score),[12],0.369
same,glycan array binding signal (z-score),[13],-1.05
same,glycan array binding signal (z-score),[14],1.38
same,glycan array binding signal (z-score),[15],0.422
same,glycan array binding signal (z-score),[16],-0.495
same,glycan array binding signal (z-score),[17],0.022
same,glycan array binding signal (z-score),[18],-0.777
same,glycan array binding signal (z-score),[19],-0.696
same,glycan array binding signal (z-score),[20],1.19
same,glycan array binding signal (z-score),[21],-0.207
same,glycan array binding signal (z-score),[22],0.788
same,glycan array binding signal (z-score),[23],0.802
same,glycan array binding signal (z-score),[24],-0.166
same,glycan array binding signal (z-score),[25],-2.15
same,glycan array binding signal (z-score),[26],0.2
same,glycan array binding signal (z-score),[27],0.281
same,glycan array binding signal (z-score),[28],-0.189
same,glycan array binding signal (z-score),[29],0.798
same,glycan array binding signal (z-score),[30],-0.925
same,glycan array binding signal (z-score),[31],-0.356
same,glycan array binding signal (z-score),[32],-0.355
same,glycan array binding signal (z-score),[33],0.118
same,glycan array binding signal (z-score),[34],0.455
same,glycan array binding signal (z-score),[35],0.074
same,glycan array binding signal (z-score),[36],0.806
same,glycan array binding signal (z-score),[37],-0.608

# An excerpt of the results above, for reference:
binder,measurement,setting,value
B1,glycan array binding signal (z-score),[32],-0.355
same,glycan array binding signal (z-score),[33],0.118
